{"source": "PubChem BioAssay AID504774 (Drosophila RNAi Screening Center, 2011)", "purpose": "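Genes required for cells to withstand methyl methanesulphonate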 (primary screen)", "cells": "Drosophila Kc167 cells", "reagents": "long dsRNA against Drosophila genes, about 0.25 µg dsRNA per well", "duration": "about 6 days: 3 days knock-down, then 3 days with or without MMS", "conditions": "methyl methanesulphonate 0.004% (w/v) for 3 days after knock-down", "measured": "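ATP-dependent luminescence as a measure of live cells in MMS-exposed wells, quantile normalised within each plate, with replicate values also given as a mean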", "scale": "mean viability with MMS and viability with MMS: higher = more surviving cells after MMS", "note": "The screen tested about 23,000 reagents; shown is a random part of those that have a named target and a result. 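Values are quantile-normalised luminescence on an arbitrary scale; higher means more cells surviving MMS.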 A plus sign joins genes that one reagent is predicted to hit. Not all columns of the deposit are shown."}
{"predicted target": "beta'COP", "PubChem SID": "SID104183284", "mean viability with MMS": 2.97e6, "viability with MMS, replicate 1": 3.40e6}
{"predicted target": "CG4887", "PubChem SID": "SID104180462", "mean viability with MMS": 3.62e6, "viability with MMS, replicate 1": 4.07e6}
{"predicted target": "CG4887", "PubChem SID": "SID104201276", "mean viability with MMS": 3.62e6, "viability with MMS, replicate 1": 4.07e6}
{"predicted target": "cnn", "PubChem SID": "SID104185214", "mean viability with MMS": 3.59e6, "viability with MMS, replicate 1": 4.11e6}
{"predicted target": "cnn", "PubChem SID": "SID104187388", "mean viability with MMS": 3.52e6, "viability with MMS, replicate 1": 3.99e6}
{"predicted target": "Jhbp14", "PubChem SID": "SID104181780", "mean viability with MMS": 3.54e6, "viability with MMS, replicate 1": 4.11e6}
{"predicted target": "CG1246", "PubChem SID": "SID104188067", "mean viability with MMS": 3.54e6, "viability with MMS, replicate 1": 4.00e6}
{"predicted target": "CG7011 + Prp31", "PubChem SID": "SID104190552", "mean viability with MMS": 3.58e6, "viability with MMS, replicate 1": 3.97e6}
{"predicted target": "CG31524", "PubChem SID": "SID104201602", "mean viability with MMS": 3.69e6, "viability with MMS, replicate 1": 4.17e6}
{"predicted target": "CG6978", "PubChem SID": "SID104198201", "mean viability with MMS": 3.66e6, "viability with MMS, replicate 1": 4.12e6}
{"predicted target": "Rpt3R", "PubChem SID": "SID104196293", "mean viability with MMS": 3.35e6, "viability with MMS, replicate 1": 3.85e6}
{"predicted target": "Spn42Da", "PubChem SID": "SID104184817", "mean viability with MMS": 3.65e6, "viability with MMS, replicate 1": 4.13e6}
{"predicted target": "CG10137", "PubChem SID": "SID104181806", "mean viability with MMS": 3.60e6, "viability with MMS, replicate 1": 3.86e6}
{"predicted target": "CG10137", "PubChem SID": "SID104181807", "mean viability with MMS": 3.52e6, "viability with MMS, replicate 1": 3.96e6}

Copied from the listing for reference:
{"predicted target": "CG4887", "PubChem SID": "SID104201276", "mean viability with MMS": 3.62e6, "viability with MMS, replicate 1": 4.07e6}
{"predicted target": "cnn", "PubChem SID": "SID104185214", "mean viability with MMS": 3.59e6, "viability with MMS, replicate 1": 4.11e6}
